According to PubChem BioAssay AID2718 (Broad Institute, 2010):
About 480 (0.15%) of roughly 320,000 compounds were called active. The inconclusive results got no clear call from the source; some entries with a clear call stand among them for comparison. No stated cut-off is given here; in the data, active means inhibition above about 26% (passing the limit was not always enough); inconclusive means no clear call, values can overlap the other calls.

Amino acid sequences for entries named in this document (tags omitted).
UniProt O15379, whole entry, looked up: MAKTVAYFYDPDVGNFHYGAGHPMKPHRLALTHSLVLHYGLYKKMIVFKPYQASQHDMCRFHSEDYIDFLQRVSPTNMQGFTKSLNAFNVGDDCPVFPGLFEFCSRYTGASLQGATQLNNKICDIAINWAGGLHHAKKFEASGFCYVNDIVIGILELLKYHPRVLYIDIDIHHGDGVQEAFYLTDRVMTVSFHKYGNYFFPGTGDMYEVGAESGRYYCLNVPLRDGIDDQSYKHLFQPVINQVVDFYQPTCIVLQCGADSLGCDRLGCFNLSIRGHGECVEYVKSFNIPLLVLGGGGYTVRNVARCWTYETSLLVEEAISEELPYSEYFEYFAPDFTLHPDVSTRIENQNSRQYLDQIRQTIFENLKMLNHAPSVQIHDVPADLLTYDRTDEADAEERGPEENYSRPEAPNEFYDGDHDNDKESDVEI

target: Histone deacetylase 3 (Homo sapiens) (UniProt O15379); test: HDAC3 deacetylase inhibitors, primary screen, biochemical, fluorescence, cell-free homogeneous (AID 2718); conditions: recombinant HDAC3, fluorogenic peptide/trypsin coupled, at 8.3 µM, active compounds read high

Row | Structure (SMILES) | inhibition
1 | NC(=O)C1CCN(C(=O)CN2CCc3ccccc32)CC1 | inactive: -4.92%
2 | CCC(CO)Oc1cc(NCc2ccc(C(C)(C)C)cc2)c2ncn(C(C)C)c2c1 (stereo unspecified) | inconclusive: 22%
3 | COc1ccc(N2CSC3=C(C#N)C(c4cc(OC)ccc4OC)CC(=O)N3C2)c(OC)c1 (stereo unspecified) | active: 42.2%
4 | COc1ccc(Cl)cc1C(=O)Nc1cc(=O)n(C)c(=O)n1C | inconclusive: 16.2%
5 | O=[N+]([O-])c1ccc2c(c1)C(N1CCOCC1)/C(=C/COc1ccc(Cl)cc1Cl)O2 (stereo unspecified) | inconclusive: 13.8%
6 | O=C(Nc1cc(C(F)(F)F)ccc1N1CCOCC1)c1ccncc1 | inactive: -5.31%
7 | CCN(CC(=O)NCc1cccs1)C(=O)c1ccc(S(=O)(=O)Nc2ccccc2F)cc1 | inconclusive: 20.6%
8 | Cc1c(C)c2ccc(OCC(=O)N3CCN(c4ccccc4)CC3)cc2oc1=O | inconclusive: 15.8%
9 | C#CCOCCOCCOCCNc1nc(N2CCN(C(=O)[C@H](Cc3cc4ccccc4[nH]3)n3cc([C@@H](N)CC(C)C)nn3)CC2)nc(N2CCN(C(=O)[C@H](Cc3cc4ccccc4[nH]3)n3cc([C@@H](N)CC(C)C)nn3)CC2)n1 | inactive: -1.22%
10 | CCN1CCN(CCCNC(=O)c2ccc(NC(=O)C3=C(C)OCCS3)cc2)CC1 | inconclusive: 23.6%
11 | CCCCN(CC)CCNC(=O)c1cn(-c2ccc(Cl)cc2)c(=O)c2ccccc12 | inconclusive: 25.2%
12 | OC(CNCCC1C=Nc2ccccc21)Cn1c2ccc(Cl)cc2c2cc(Cl)ccc21 (stereo unspecified) | active: 45.9%
13 | C=CCN(CC=C)C(=O)c1ccc(OC2CCN(C(C)=O)CC2)c(OC)c1 | inconclusive: 20.9%
14 | COc1ccc(C)cc1S(=O)(=O)Nc1cc2c3c(c1)C(C)C(=O)N3CCC2 (stereo unspecified) | inconclusive: 17%
15 | COC(=O)c1cc(-c2c(C)nn(-c3ccccc3)c2C)n[nH]1 | inactive: 0.901%
16 | COc1ccc(NC(=S)Nc2cnc3ccccc3c2)c(OC)c1 | inactive: -6%
17 | O=C(CCc1ccccc1)Nc1cc2c3c(c1)CC(=O)N3CCC2 | inactive: -6.09%
18 | Cc1ccc(NC(=O)CSc2nc(=O)n(CCN3CCOCC3)c3c2CCCC3)cc1 | inconclusive: 23.9%
19 | COc1ccc(N2C(=O)CC(N(C)CCc3ccc(OC)c(OC)c3)C2=O)cc1 (stereo unspecified) | inconclusive: 15.5%
20 | O=Cc1ccc(O)c(O)c1 | inactive: 3.33%
21 | O=c1[nH][nH]c(C(F)(F)F)c1C=Nc1cccc(Cl)c1 | inconclusive: 20.3%
22 | Cc1cc(Cn2nnc3ccccc32)c(O)c(C(C)(C)C)c1 | inconclusive: 19.8%

Row | Structure (SMILES) | inhibition
23 | Cc1ccc(C)c(NC(=S)NNC(=S)Nc2ccc(C(C)C)cc2)c1 | inconclusive: 16%
24 | COc1cccc(C(=O)SC2=NCCS2)c1 | active: 48.7%
25 | CCN(CC)S(=O)(=O)c1ccc2[nH]cc(C(=O)NCCN3CCCCCC3)c(=O)c2c1 | inconclusive: 20.5%
26 | CC(C)(C)c1sc(N)nc1-c1ccccc1 | inconclusive: 19.5%
27 | O=C(Oc1ccc(-c2nnco2)cc1)N1CCCCC1 | inconclusive: 14.1%
28 | Cc1cccc(NC(=O)c2cccc(N3C(=O)C4C5C=CC(C6CC56)C4C3=O)c2)c1 (stereo unspecified) | inactive: -3.14%
29 | CCc1ccc(/C=N/NC(=O)c2ccc(OC3CCCC3)cc2)s1 | inconclusive: 12.4%
30 | O=C(OCC(=O)N1CCCC1=O)c1cc(S(=O)(=O)N2CCOCC2)ccc1Cl | inconclusive: 20.9%
31 | O=C(CN1C(=O)NC2(CCOc3ccccc32)C1=O)Nc1ccc2c(c1)OCCO2 (stereo unspecified) | inconclusive: 15.9%
32 | O=C(NCCN1CCOCC1)/C(=C/c1ccc(Cl)cc1)NC(=O)c1ccccc1 | inactive: 5.6%
33 | Cc1cccc(C(=O)NCC(=O)OCC(=O)N(C)CC(=O)Nc2ccc(F)cc2)c1 | inactive: -0.242%
34 | CCc1nc(N2CCN(S(C)(=O)=O)CC2)c2c3c(sc2n1)CCCC3 | inconclusive: 27.3%
35 | COc1cn(-c2ccccc2)nc1C(=O)NCc1ccccc1 | inactive: -4.09%
36 | Cc1cc(C)cc(NC(=O)CSc2nc3c(c(=O)n2C)SC(C)C3)c1 (stereo unspecified) | inactive: 5.83%
37 | O=C(NNc1nc(N2CCOCC2)nc(N2CCOCC2)n1)Nc1ccc(Cl)cc1 | inconclusive: 10.9%
38 | CCOC(=O)CSc1n[nH]c(NC(=O)c2cccc(C(F)(F)F)c2)n1 | inconclusive: 16.2%
39 | COc1cc(Cl)c(NS(=O)(=O)c2c(C(=O)N3CCCC3)c(C)n(C)c2C)c(OC)c1 | inconclusive: 21.9%
40 | Cc1ccc(OCC(=O)NNC(=O)C2CCC2)cc1C | inconclusive: 25.4%
41 | O=C(CN(C(=O)CNS(=O)(=O)c1ccc(F)cc1)C1CCCC1)NCc1ccco1 | inconclusive: 5.43%
42 | Cc1nn(C)c2ncc(C(=O)c3ccccc3O)cc12 | inactive: 2.38%
43 | COc1ccc(N(C(=O)c2ccco2)S(=O)(=O)c2cc(Cl)c(Cl)cc2Cl)cc1 | inconclusive: 17.5%
44 | Nc1[nH]n2c(=O)cc(-c3ccccc3)nc2c1N=Nc1ccc(S(N)(=O)=O)cc1 | inconclusive: 14.5%

Gathered by group, the compounds so far containing a furan ring, fused or not (2)
Row | Structure (SMILES) | inhibition
41 | O=C(CN(C(=O)CNS(=O)(=O)c1ccc(F)cc1)C1CCCC1)NCc1ccco1 | inconclusive: 5.43%
43 | COc1ccc(N(C(=O)c2ccco2)S(=O)(=O)c2cc(Cl)c(Cl)cc2Cl)cc1 | inconclusive: 17.5%

Going on with the list:

Row | Structure (SMILES) | inhibition
45 | COc1ccc(C(=O)Nc2ccnn2C2CCN(C(=O)c3cc(C)on3)CC2)cc1 | inactive: 1.02%
46 | CCOC(=O)CSc1nc(N2CCOCC2)c2c(c1C#N)CC(C(C)C)OC2 (stereo unspecified) | inconclusive: 20.2%
47 | COc1cc2cc(Oc3ccc4ccc(=O)oc4c3)c(=O)oc2cc1OC(=O)/C=C/c1ccccc1 | inconclusive: 16.4%
48 | CCS(=O)(=O)Nc1ccc(C2=NN(S(=O)(=O)CC)C(c3cccs3)C2)cc1 (stereo unspecified) | inconclusive: 13.1%
49 | COc1ccc(S(=O)(=O)N(C)C[C@H]2Oc3c(NC(=O)Nc4ccc(C(F)(F)F)cc4)cccc3C(=O)N([C@H](C)CO)C[C@@H]2C)cc1 | active: 32.3%
50 | Cc1onc(-c2ccccc2)c1C(=O)OCC(=O)Nc1ccc(OC(F)(F)F)cc1 | inconclusive: 26.3%
51 | COc1cccc(N=C2CC(C)(C)CC(=O)/C2=C(/O)c2ccccc2)c1 | inactive: 11.5%
52 | CC(C)c1cc(C(=O)Nc2cccc(C(F)(F)F)c2)no1 | inconclusive: 14.9%
53 | CC(C)(C)c1nc(SCC(=O)c2ccccc2)c2ccccc2n1 | inactive: 9.1%
54 | CC(=O)N(CCC(Cc1ccccc1)c1ccc2c(c1)OCO2)Cc1ccccc1F (stereo unspecified) | inconclusive: 16.5%
55 | CC(C)(C)c1nnc2cccc(Cl)n12 | inconclusive: 22.1%
56 | CCOc1ccc(NC(=O)CCC(=O)NNC(=O)c2ccccc2Cl)cc1 | inconclusive: 13.1%
57 | O=C1NC(Cc2ccccc2)c2nc3ccc(F)cc3c(=O)n2-c2cc(Cl)ccc21 (stereo unspecified) | inactive: -1.34%
58 | COc1cc(NC(=O)C(=O)NCCN2CCNCC2)c(OC)cc1Cl | inconclusive: 16.6%
59 | COc1ccc2[nH]c3c(=O)n(CCCCC(=O)NCCN4CCCC4)c(=S)[nH]c3c2c1 | active: 29.8%
60 | Cn1nnnc1SCC(=O)Nc1ccc2c(c1)OCCO2 | inconclusive: 43.1%
61 | Cc1ccccc1NC(=O)CN1C(=O)S/C(=C\c2cccn2-c2cccc(C(=O)O)c2)C1=O | inactive: 4.9%
62 | CCCN1C=CC(=CC=C(C#N)C#N)C=C1 | inconclusive: 23.1%
63 | CCCCNC(=O)CC1N=C2c3ccccc3N=C(SCC(=O)Nc3cccc(C)c3)N2C1=O (stereo unspecified) | inconclusive: 16.4%
64 | COc1ccc(NC(=O)CSc2nc(N)c(C#N)cc2C#N)cc1 | inactive: -2.56%
65 | CC(C)(C)NC(=O)C(OC(=O)c1cccs1)c1ccc(F)cc1 (stereo unspecified) | inconclusive: 19.8%
66 | CN(C)/C=C1\NC(=S)N(c2ccccc2)C1=O | inconclusive: 25.1%

A few values from the entries so far:
`Cn1nnnc1SCC(=O)Nc1ccc2c(c1)OCCO2` – inhibition: inconclusive: 43.1%
`CCCCNC(=O)CC1N=C2c3ccccc3N=C(SCC(=O)Nc3cccc(C)c3)N2C1=O` (stereo unspecified) – inhibition: inconclusive: 16.4%

Next structures follow.

Row | Structure (SMILES) | inhibition
67 | C=CCC[C@H](Cc1ccc(F)cc1)C(=O)OC[C@H](Cc1c[nH]c2ccccc12)NC(=O)[C@H](CC=C)CC(=O)N(CCO)Cc1ccccc1 | active: 47%
68 | CCc1ccc(CN(C)C(=O)c2cc(COc3cc(C)c(Cl)c(C)c3)on2)nc1 | inconclusive: 25.7%
69 | Cc1cc(C)cc(NC(=O)CN2C(=O)COc3ccc(S(=O)(=O)N4CCCC4)cc32)c1 | inconclusive: 18.9%
70 | CCN1CCN(S(=O)(=O)c2ccc(C(C)(C)C)cc2)CC1 | inactive: -3.85%
71 | CCCSc1nnc(NC(=O)CCc2ccccc2)s1 | inconclusive: 16.5%
72 | O=C(NCCc1ccccc1)c1ccc2nccnc2c1 | inconclusive: 22.8%
73 | CC1(C)NC(=O)N(CCOc2ccc3c(c2)CCC3)C1=O | inconclusive: 11.9%
74 | CC(=O)c1ccccc1NC(=O)COC(=O)CCCN1C(=O)c2cccc3cccc(c23)C1=O | inactive: -0.0443%
75 | O=C(COC(=O)CC1CC2CCC1C2)NCc1ccccc1 (stereo unspecified) | inactive: -3.54%
76 | CCCCCCC(O)(c1ccc(OC)cc1)C(CN1CCOCC1)c1ccccc1 (stereo unspecified) | inconclusive: 33%
77 | c1cnc2c(c1)ccc1cccnc12 | inactive: 2.74%
78 | COC(=O)c1ccc(CSc2nc3ccccc3s2)o1 | inconclusive: 10.1%
79 | CCc1nnc(NC(=O)[C@@H]2CCCN2S(=O)(=O)c2ccc3c(c2)OCCO3)s1 | inconclusive: 14.4%
80 | O=C(N/N=C/c1ccc(OC(F)F)cc1OC(F)F)NC1CCCCC1 | active: 29.2%
81 | COc1ccc(NC(=O)Cn2nc(C(F)(F)F)c3c2CCCC3)c(OC)c1 | inactive: 3.77%
82 | S=C(NCc1ccccc1)N/N=C/c1cccs1 | inactive: 5.18%
83 | COc1ccc(CCNC(=O)Cn2nnc(C(=O)Nc3cc(C)ccc3C)c2N)cc1OC | inconclusive: 15.4%
84 | O=C(NC1CCCC1)c1cccc(NC(=O)c2ccco2)c1 | inactive: -0.79%
85 | CN(C)CCN(C(=O)c1ccc2ccccc2c1)c1nc2c(F)cc(F)cc2s1 | inconclusive: 20.6%
86 | CCCC(=O)n1nc(-c2ccc(Cl)cc2)nc1SC | active: 32%
